# Some of these results come from one statement about several compounds together. Some ranges recur; such a range may be that of the whole group of compounds.
# System: XG-negative sera (RA sera comprising no XG reactive antibodies)
# Assay: ELISA of XnonG peptides with RA sera that do not react with XG peptides
# Type: binding, human
# Experimental: The most interesting peptides were synthesised in a slightly larger quantity to form a linear and a cyclic variant, and in most cases in a citrulline and arginine (=control) variant. These peptides were tested for reactivity with a series of sera from RA patients. The peptides were coated to ELISA plates and incubated with sera from RA patients. Each serum was tested in duplicate. Sera from healthy persons were used as negative control.
# The percentages mentioned in table 8 therefore show the percentage of the sera that did comprise antibodies to XnonG peptide units but comprised no XG reactive antibodies.
substance,measurement,value
A R F Q M Cit H Cit R L I R [0107-35],react with % of the XG negative sera,15-18%
K P Y T V Cit K F M R R P [0107-32],react with % of the XG negative sera,15-18%
Y S F V W Cit S H A R P R [0107-45],react with % of the XG negative sera,15-18%
